Reference: PubChem BioAssay AID445 (National Center for Advancing Translational Sciences (NCATS), 2006)
This is one part of the list. These are further read-outs of the screen, such as a control signal, another cell line or another target. No call is given for them. The list favours compounds with an active or inconclusive main result. Words in brackets tell the shape of the fitted curve; partial curves, single points and poor fits give uncertain potencies.

Assay: IkB Signaling
Details: ABC-DLBCL IkBa-CBG/CBR dual luciferase ratio (green luciferase fused to IkBa over red control in OCI-Ly3 lymphoma cells), 4 h
Summary of the method: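 In this assay, an IκBα–CBG68 fusion accumulates when IKK-driven degradation is blocked; native CBR normalizes for cell number. OCI-Ly3 cells were treated 4 h with compound and doxycycline, then green and red light read after Chroma-Glo addition.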

[1] = measured here: control luc red channel unless noted
[2] = measured here: IkB-luc green channel
[3] = measured here: control luc red channel

COc1ccc(-c2cc(C(F)(F)F)n3ncc(-c4ccccc4)c3n2)cc1
AC50 [1]: 20 µM [falling, single point]

O=C(Nc1ccc(Cl)cc1)N1CCC(c2nc(-c3cccs3)no2)CC1
AC50 [2]: 39.8 µM [falling, single point] | AC50 [3]: 25.1 µM [falling, single point]

CCN(CC)c1ccc(NC(=O)c2cc(OC)cc(OC)c2)c(C)c1
AC50 [1]: 3.98 µM [falling, partial curve]

CCOCCCn1c(SCC(=O)NCc2ccccc2)nc2c(sc3ccccc32)c1=O
AC50 [1]: 10 µM [rising, partial curve]

CCCCOc1ccccc1Cn1c(=O)sc2ccccc21
AC50 [1]: 39.8 µM [falling, single point]

CCOc1ccc(C(=O)Nc2cccc(NC(=O)c3ccc(Cl)cc3Cl)c2)cc1
AC50 [1]: 5.01 µM [falling, partial curve]

CSc1ncc(Cl)c(C(=O)C(C#N)c2nc3c(C)cc(C)cc3c(=O)[nH]2)n1 (stereo not drawn)
AC50 [1]: 15.8 µM [falling, partial curve]

Cn1c(SCC(=O)Nc2nc3ccccc3s2)ncc(C(=O)Nc2ccc(Cl)cc2)c1=O
AC50 [1]: 10 µM [falling, partial curve]

COc1cccc(NC(=O)Cn2nnc(C(=O)NCc3ccc4c(c3)OCO4)c2N)c1
AC50 [1]: 25.1 µM [falling, single point]

Cc1cc(C)c(NC(=O)CSc2nc(=O)n(Cc3cccnc3)c3c2CCC3)c(C)c1
AC50 [1]: 1.58 µM [rising, full curve, poor fit]

Cc1ccc(S(=O)(=O)CC(=O)Nc2nc3c(C)cccc3s2)cc1
AC50 [1]: 25.1 µM [falling, partial curve]

Cc1ccc(N2CCN(Cc3nnc(-c4ccccc4F)o3)CC2)c(C)c1
AC50 [1]: 25.1 µM [falling, single point]

CSc1ccc(/C=C/c2nc3ccccc3n2S(=O)(=O)c2ccc(Br)cc2)cc1
AC50 [1]: 0.0316 µM [falling, full curve]

COc1cccc(NC(=O)/C(C#N)=C/c2c(C)n(Cc3ccccc3)c3ccccc23)c1
AC50 [1]: 3.16 µM [falling, full curve]

CCOc1ccc(NC(=O)CCc2c(C)nc3nc(-c4cc(OC)cc(OC)c4)nn3c2C)cc1
AC50 [1]: 15.8 µM [falling, single point]

CCOC(=O)c1c(C)[nH]c(C)c1S(=O)(=O)N1CCCC(C(=O)Nc2cccc(CC)c2)C1 (stereo not drawn)
AC50 [1]: 10 µM [falling, partial curve, poor fit]

CC(=O)N1CCc2cc(Br)cc(S(=O)(=O)NCCc3cccc(C)c3)c21
AC50 [1]: 2 µM [falling, partial curve]

Fc1ccc(C(NCCc2ccc(Cl)cc2)c2nnc(-c3ccccc3Cl)o2)cc1 (stereo not drawn)
AC50 [1]: 20 µM [falling, partial curve]

COc1cc(OC)c(NC(=O)CCc2nc(-c3ccc(C)cc3)no2)cc1Cl
AC50 [1]: 7.94 µM [falling, partial curve]

CC(C)c1ccc(NC(=O)Cc2ccc(NC(=O)N3CCCCc4ccccc43)cc2)cc1
AC50 [1]: 25.1 µM [falling, partial curve]

CCC1CN(C(=O)NCc2ccc(F)cc2)c2cc(Cl)ccc2O1 (stereo not drawn)
AC50 [1]: 10 µM [falling, partial curve]

CCOc1cccc(CNC(=O)c2ccc(N3CCCC3)c(NC(=O)Nc3ccccc3CC)c2)c1
AC50 [1]: 15.8 µM [falling, partial curve]

Cc1c(C(=O)NCc2cccnc2)oc2ccc(S(=O)(=O)N3CCCCCC3)cc12
AC50 [1]: 15.8 µM [falling, partial curve]

Nc1nc(Nc2cccc(Cl)c2)sc1C(=O)c1ccc(F)cc1
AC50 [1]: 20 µM [falling, single point]

COc1ccc(NC(=O)c2cccn2-c2nnc(N3CCCCC3)s2)c(OC)c1
AC50 [1]: 0.0794 µM [rising, full curve, poor fit]

CC1C(O)=C(c2nc3ccccc3[nH]2)C(=N)N1c1ccccc1 (stereo not drawn)
AC50 [1]: 31.6 µM [rising, partial curve] [measured here: IkB-luc green channel]

O=C(CSCc1nc2ccccc2[nH]1)N1CCN(c2cccc(Cl)c2)CC1
AC50 [1]: 3.98 µM [falling, partial curve]

Cc1ccc(NC(=O)Nc2c(C)n(C)n(-c3ccccc3)c2=O)c(Cl)c1
AC50 [1]: 31.6 µM [falling, single point]

COc1ccccc1NC(=O)c1ccc(-c2nc(COc3ccc(C)cc3)c(C)o2)cc1
AC50 [1]: 15.8 µM [falling, single point]

CCOc1ccc(NC(=O)C2=C(C)C(=O)OC23CCC(C)CC3)cc1 (stereo not drawn)
AC50 [1]: 25.1 µM [falling, single point]

COc1ccc(-c2cc(C)no2)cc1S(=O)(=O)N1CCCC(C)C1 (stereo not drawn)
AC50 [1]: 39.8 µM [rising, single point] [measured here: IkB-luc green channel]

Cc1cccc(NC(=O)c2ccc3[nH]c(C)cc(=O)c3c2)c1
AC50 [1]: 2.51 µM [rising, full curve]

COc1cc(C2=NOC(C(=O)Nc3ccc(C)cc3)C2)cc(OC)c1OC (stereo not drawn)
AC50 [1]: 20 µM [falling, partial curve]

COC(=O)C(C)n1cnc2c(cnn2-c2ccc(Cl)cc2)c1=O (stereo not drawn)
AC50 [1]: 25.1 µM [falling, partial curve]

CCN(CC)C(=O)c1ccc2c(c1)N(Cc1ccccc1F)C(=O)c1ccccc1S2=O (stereo not drawn)
AC50 [1]: 3.16 µM [rising, partial curve]

Cc1ccc(NC(=O)Cn2c(=O)nc(-c3ccccc3)c3ccccc32)cc1
AC50 [1]: 5.01 µM [falling, partial curve]

Cc1cccc(C(=O)n2nc(-c3cccnc3)nc2NCc2ccc(F)cc2)c1
AC50 [1]: 7.94 µM [falling, partial curve]

CCOC(=O)Cc1c(C)nc2cc(-c3ccc(C(C)(C)C)cc3)nn2c1C
AC50 [1]: 31.6 µM [falling, single point]

COc1ccc(-n2ncc(C(=O)N3CCN(C4CCCCC4)CC3)c2C2CCN(C(=O)OC(C)(C)C)CC2)cc1
AC50 [1]: 20 µM [falling, partial curve]

C=CCc1ccccc1OCc1nc2ccc(C)cc2[nH]1
AC50 [1]: 15.8 µM [falling, partial curve]

Cn1c(=O)c2c(nc(NC3CCCCC3)n2CC(=O)C23CC4CC(CC(C4)C2)C3)n(C)c1=O
AC50 [1]: 20 µM [falling, partial curve]

CCOC(=O)c1c(NC(=O)CSc2nc(-c3ccc(OC)cc3)cc(C(F)(F)F)n2)sc(C)c1C
AC50 [1]: 3.98 µM [falling, partial curve, poor fit]

COc1cc(CN(C(=O)Nc2cccc(Cl)c2)c2ccccn2)cc(OC)c1OC
AC50 [1]: 6.31 µM [rising, full curve]

Cc1ccc(C(=O)NCC(c2cccs2)S(=O)(=O)c2ccccc2)cc1C (stereo not drawn)
AC50 [1]: 39.8 µM [falling, single point]

CC(C)Nc1nc2c(S(=O)(=O)c3cccc(Cl)c3)nnn2c2ccsc12
AC50 [1]: 1.26 µM [rising, full curve, poor fit]

CCCCC(CC)CNC(=O)CCCCn1c(=O)[nH]c2ccsc2c1=O (stereo not drawn)
AC50 [1]: 5.01 µM [falling, partial curve]

CCC(=O)N1CCc2cc(CNS(=O)(=O)c3ccc(C(C)C)cc3)ccc21
AC50 [1]: 39.8 µM [falling, single point]

COC(=O)c1ccc2c(=O)n(CCCCCC(=O)N3CCN(c4cc(C)ccc4C)CC3)c(=O)[nH]c2c1
AC50 [1]: 7.94 µM [falling, partial curve]

CCC(C)Nc1ccc(NC(C)CC)cc1 (stereo not drawn)
AC50 [1]: 10 µM [falling, full curve]

CCCSc1ncc(Cl)c(C(=O)N2CCN(c3cccc(Cl)c3)CC2)n1
AC50 [1]: 12.6 µM [falling, partial curve]

CCOc1ccc(NC(=O)CC2C(=O)N(c3ccc(OC)cc3)C(=O)N2C2CCCCC2)cc1 (stereo not drawn)
AC50 [1]: 39.8 µM [falling, single point]

Cc1cccc(N2CCN(C(=O)c3cnn(-c4ccc(F)cc4F)c3C3CCN(C(=O)OC(C)(C)C)CC3)CC2)c1C
AC50 [1]: 15.8 µM [falling, partial curve]

CCCNC(=O)CSc1c2c(nc3ccc(Cl)cc13)CCCC2
AC50 [2]: 20 µM [rising, single point] | AC50 [3]: 12.6 µM [falling, partial curve]

CCOC(=O)c1cc2c(=O)n3ccccc3nc2n(Cc2ccco2)c1=NC(=O)c1cccc(C)c1
AC50 [1]: 12.6 µM [falling, partial curve]

Cc1ccc(NC(=O)CSc2nc3ccccc3c(=O)n2CCC(=O)NC2CCCCC2)cc1C
AC50 [1]: 0.316 µM [falling, full curve]

Cc1cccc(N2CCN(C(=O)C3CCN(S(=O)(=O)c4c(C)noc4/C=C/c4ccccc4F)CC3)CC2C)c1 (stereo not drawn)
AC50 [1]: 2.51 µM [falling, full curve]

Cc1ccc(C2C=C(c3ccccc3)Nc3nc(NS(=O)(=O)c4ccc(C)cc4)nn32)cc1 (stereo not drawn)
AC50 [1]: 31.6 µM [falling, single point]

Cc1ccc2oc(=O)c3cnn(CC(=O)N4CCN(c5ccccc5F)CC4)c3c2c1
AC50 [1]: 25.1 µM [falling, partial curve]

CCc1ccccc1NC(=O)c1ccc(Cn2nc(N3CCN(c4ccccc4)CC3)ccc2=O)o1
AC50 [1]: 31.6 µM [falling, single point]

Cc1nc2c3ccccc3nc(NNC(=O)CCC(=O)N3CCN(c4cc(Cl)ccc4C)CC3)n2n1
AC50 [1]: 20 µM [falling, partial curve]

O=C(C1CCN(S(=O)(=O)c2ccc3ccccc3c2)CC1)N1CCN(c2ncccn2)CC1
AC50 [1]: 15.8 µM [falling, partial curve]
